Measured values reported in the supplement of paper PMC10849652.
The list shows a part of the results.

By UniProt entry, the sequences of proteins in these tests, tags left out. Where a name states a change or a piece, a line headed by the entry shows the natural chain unless it says otherwise.
UniProt Q9BW27: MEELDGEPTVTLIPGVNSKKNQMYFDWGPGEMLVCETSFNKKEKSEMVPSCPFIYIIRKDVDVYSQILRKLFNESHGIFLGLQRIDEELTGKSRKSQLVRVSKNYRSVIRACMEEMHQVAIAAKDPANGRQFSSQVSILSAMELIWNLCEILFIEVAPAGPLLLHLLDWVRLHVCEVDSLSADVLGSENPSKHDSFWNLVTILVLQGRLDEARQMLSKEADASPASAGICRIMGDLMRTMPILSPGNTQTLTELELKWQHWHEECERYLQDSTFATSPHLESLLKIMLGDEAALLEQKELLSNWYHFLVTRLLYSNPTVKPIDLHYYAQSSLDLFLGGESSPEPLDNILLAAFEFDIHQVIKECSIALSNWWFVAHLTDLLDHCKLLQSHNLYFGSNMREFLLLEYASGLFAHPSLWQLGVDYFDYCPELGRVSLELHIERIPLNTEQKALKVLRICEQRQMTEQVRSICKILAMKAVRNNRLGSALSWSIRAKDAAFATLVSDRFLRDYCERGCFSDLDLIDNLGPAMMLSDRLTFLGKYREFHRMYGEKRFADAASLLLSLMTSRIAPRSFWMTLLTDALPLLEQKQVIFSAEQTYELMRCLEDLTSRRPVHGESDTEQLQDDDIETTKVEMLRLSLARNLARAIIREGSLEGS
UniProt Q9H300: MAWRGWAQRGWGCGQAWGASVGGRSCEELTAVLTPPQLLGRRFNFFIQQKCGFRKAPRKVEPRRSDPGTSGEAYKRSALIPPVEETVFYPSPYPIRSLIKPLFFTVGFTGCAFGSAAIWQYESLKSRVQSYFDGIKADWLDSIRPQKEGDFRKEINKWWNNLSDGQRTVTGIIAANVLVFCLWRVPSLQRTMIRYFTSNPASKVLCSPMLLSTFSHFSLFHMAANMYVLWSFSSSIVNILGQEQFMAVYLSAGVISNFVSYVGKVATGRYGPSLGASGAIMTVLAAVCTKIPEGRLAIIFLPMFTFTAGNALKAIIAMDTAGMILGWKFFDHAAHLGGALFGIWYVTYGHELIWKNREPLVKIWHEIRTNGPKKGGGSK
UniProt P55809: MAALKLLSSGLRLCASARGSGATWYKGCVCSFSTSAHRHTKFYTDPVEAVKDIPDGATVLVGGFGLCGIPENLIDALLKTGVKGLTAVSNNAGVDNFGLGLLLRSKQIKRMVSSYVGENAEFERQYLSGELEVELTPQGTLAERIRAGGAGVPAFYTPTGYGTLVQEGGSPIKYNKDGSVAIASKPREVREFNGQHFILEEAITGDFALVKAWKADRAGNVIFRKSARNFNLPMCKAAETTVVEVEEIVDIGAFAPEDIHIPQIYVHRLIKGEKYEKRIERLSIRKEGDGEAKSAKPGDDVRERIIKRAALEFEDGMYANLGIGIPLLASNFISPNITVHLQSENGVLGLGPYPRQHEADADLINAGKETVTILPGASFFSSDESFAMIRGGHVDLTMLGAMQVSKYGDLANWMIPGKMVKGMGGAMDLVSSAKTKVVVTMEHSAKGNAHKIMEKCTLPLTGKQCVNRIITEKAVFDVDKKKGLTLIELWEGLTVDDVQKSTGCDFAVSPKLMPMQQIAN
UniProt Q6N063: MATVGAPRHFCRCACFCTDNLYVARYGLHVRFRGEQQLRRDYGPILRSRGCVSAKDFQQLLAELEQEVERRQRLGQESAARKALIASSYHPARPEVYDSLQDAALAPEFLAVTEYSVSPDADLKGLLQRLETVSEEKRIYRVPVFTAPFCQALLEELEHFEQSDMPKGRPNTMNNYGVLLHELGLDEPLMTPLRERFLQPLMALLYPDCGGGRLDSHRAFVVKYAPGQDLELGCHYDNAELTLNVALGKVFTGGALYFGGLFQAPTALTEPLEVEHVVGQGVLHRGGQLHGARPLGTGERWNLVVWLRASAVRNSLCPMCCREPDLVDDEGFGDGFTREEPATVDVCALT
UniProt Q96SU4: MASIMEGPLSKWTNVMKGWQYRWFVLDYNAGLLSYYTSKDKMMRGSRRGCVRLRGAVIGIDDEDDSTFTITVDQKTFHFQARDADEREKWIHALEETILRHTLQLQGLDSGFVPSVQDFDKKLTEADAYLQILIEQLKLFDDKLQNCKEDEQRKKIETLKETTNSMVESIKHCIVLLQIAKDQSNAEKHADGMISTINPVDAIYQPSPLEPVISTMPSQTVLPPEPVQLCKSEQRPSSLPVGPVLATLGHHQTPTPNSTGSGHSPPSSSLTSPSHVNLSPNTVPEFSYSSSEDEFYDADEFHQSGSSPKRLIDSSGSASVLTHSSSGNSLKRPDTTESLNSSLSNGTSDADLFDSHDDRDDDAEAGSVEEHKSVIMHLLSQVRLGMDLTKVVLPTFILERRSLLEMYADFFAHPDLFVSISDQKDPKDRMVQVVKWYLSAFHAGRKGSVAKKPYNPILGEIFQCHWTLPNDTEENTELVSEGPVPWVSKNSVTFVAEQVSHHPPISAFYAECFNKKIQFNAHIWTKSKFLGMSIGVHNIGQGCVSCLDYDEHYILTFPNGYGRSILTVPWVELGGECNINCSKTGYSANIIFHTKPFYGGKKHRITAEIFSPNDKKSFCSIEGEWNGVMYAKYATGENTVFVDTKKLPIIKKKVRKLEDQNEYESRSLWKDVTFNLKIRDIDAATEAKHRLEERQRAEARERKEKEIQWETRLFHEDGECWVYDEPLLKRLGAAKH
UniProt Q92621: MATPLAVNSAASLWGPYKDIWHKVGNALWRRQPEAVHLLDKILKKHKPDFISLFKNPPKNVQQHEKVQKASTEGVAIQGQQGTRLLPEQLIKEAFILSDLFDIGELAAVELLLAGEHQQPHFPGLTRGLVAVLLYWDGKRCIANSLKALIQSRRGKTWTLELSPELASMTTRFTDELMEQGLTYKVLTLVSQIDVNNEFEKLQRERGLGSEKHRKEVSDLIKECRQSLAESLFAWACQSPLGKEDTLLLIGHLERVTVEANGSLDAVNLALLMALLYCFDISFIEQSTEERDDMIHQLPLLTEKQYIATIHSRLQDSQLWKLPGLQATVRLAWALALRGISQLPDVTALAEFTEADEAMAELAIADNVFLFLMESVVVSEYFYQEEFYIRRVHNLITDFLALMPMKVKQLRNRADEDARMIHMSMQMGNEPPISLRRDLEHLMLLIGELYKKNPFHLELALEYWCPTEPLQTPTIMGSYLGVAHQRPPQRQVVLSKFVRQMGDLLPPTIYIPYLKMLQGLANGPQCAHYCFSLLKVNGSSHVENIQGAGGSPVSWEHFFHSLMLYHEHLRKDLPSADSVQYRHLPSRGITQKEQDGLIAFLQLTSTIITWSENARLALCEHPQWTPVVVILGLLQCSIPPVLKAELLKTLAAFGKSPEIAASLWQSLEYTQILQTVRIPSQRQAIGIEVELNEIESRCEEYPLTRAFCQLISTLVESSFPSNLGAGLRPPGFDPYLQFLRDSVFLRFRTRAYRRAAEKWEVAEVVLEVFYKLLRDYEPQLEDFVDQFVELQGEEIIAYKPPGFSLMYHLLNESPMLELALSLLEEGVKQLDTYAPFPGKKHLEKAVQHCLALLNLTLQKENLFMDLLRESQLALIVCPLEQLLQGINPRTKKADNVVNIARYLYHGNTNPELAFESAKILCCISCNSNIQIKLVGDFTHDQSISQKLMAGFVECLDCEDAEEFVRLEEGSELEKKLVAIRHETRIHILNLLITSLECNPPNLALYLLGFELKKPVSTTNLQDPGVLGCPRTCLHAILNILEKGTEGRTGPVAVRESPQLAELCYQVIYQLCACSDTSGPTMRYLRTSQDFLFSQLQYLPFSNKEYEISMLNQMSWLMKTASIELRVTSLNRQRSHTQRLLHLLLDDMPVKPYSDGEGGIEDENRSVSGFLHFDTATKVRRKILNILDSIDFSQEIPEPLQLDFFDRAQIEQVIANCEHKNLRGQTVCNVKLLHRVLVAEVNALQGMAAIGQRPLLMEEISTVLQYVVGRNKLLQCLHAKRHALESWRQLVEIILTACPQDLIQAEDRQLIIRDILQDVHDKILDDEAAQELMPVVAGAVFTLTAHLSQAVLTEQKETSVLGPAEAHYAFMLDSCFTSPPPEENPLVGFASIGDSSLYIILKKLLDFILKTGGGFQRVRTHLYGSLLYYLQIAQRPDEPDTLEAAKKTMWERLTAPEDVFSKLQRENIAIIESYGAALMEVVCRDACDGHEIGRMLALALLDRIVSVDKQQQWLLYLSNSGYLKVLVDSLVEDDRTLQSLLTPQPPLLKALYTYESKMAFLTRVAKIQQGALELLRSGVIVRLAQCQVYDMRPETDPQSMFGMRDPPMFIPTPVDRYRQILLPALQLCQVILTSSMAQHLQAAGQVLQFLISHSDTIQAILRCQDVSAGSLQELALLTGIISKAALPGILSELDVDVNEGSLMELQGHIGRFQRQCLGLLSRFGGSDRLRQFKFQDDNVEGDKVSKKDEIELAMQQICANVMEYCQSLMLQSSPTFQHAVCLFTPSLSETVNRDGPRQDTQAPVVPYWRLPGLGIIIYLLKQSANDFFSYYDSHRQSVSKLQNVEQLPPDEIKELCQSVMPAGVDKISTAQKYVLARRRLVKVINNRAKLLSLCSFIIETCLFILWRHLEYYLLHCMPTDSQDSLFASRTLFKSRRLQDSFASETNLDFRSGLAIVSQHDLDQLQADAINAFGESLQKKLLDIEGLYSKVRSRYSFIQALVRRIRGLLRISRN
UniProt Q8N6M0: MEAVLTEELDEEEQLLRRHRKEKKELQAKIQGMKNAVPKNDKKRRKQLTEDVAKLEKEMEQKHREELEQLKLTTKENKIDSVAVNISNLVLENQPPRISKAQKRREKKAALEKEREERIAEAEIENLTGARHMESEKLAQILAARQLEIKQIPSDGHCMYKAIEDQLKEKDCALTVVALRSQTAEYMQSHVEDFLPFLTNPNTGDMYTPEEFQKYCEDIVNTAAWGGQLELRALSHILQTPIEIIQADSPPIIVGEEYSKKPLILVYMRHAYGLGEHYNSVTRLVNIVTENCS
UniProt P22234: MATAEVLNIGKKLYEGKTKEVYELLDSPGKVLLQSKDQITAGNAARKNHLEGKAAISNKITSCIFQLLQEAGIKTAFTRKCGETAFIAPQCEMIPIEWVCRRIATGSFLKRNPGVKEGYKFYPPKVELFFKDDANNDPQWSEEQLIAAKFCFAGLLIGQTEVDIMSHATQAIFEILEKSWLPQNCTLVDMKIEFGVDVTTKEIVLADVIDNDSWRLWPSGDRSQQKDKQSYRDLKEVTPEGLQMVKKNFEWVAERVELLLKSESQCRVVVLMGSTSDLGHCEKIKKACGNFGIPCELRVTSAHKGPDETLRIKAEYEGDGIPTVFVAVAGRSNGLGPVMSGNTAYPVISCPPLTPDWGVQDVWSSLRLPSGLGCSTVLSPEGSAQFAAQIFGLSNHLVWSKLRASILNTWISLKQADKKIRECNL
UniProt Q96BN8, whole entry, looked up: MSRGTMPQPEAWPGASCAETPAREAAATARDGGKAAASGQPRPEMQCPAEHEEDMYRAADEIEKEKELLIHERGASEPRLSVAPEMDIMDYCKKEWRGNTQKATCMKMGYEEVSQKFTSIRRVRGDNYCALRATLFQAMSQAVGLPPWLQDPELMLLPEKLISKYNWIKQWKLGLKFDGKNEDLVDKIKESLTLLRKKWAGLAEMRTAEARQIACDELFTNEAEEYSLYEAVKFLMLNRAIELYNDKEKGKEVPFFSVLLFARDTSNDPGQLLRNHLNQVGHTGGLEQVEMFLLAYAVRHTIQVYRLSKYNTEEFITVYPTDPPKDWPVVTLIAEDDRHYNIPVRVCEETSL
UniProt Q96GU1: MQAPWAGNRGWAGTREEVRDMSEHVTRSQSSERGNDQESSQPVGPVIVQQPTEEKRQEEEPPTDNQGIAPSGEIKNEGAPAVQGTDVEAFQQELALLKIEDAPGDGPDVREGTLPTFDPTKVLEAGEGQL
UniProt Q8NFH4: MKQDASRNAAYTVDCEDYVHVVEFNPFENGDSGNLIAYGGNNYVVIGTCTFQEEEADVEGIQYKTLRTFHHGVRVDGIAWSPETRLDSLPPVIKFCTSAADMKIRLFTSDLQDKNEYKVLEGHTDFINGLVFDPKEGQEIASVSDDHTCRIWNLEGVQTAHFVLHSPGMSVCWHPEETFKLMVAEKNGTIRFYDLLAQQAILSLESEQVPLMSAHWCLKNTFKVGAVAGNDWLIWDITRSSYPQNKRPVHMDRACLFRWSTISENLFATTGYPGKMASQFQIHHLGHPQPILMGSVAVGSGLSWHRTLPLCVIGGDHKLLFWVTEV
UniProt P00480: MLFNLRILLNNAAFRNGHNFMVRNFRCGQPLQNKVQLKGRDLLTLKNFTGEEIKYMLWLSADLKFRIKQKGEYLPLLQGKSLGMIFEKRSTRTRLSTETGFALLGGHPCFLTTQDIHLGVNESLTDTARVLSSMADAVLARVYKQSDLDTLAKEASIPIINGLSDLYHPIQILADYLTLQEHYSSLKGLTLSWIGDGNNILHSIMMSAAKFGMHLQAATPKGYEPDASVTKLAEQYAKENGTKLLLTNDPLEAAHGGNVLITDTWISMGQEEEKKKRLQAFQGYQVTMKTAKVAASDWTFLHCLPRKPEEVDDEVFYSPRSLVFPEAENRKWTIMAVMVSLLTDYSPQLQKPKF

How the values were obtained:
Experiment in all cases: log2 fold change, soluble protein after heating vs DMSO (PISA); higher = thermal stabilisation; K562 lysate, 10 uM; active = over 0.2 and 3.5 SD of the protein, either way, in both replicates (recomputed)
[1] = compound: C=CC(=O)N1CCC[C@@H](n2nc(-c3ccc(Oc4ccccc4)cc3)c3c(N)ncnc32)C1 [ibrutinib]
Method in brief: (§1)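 Soluble protein was defined as the supernatant remaining after 21,000xg for 90 min, following pooling of heated aliquots and adjustment to 0.5% NP-40 at 4°C. Before that, crude K562 extract at 1 mg/mL protein in PBS pH 7.4 with 1 mM MgCl2 was treated with 10 μM compound for 30 min and heated for 3 min across 48°C-58°C. Quantification used TMTpro 16plex LC-MS/MS with channel sums equalised, and values are log-two fold changes in thermal stability relative to solvent controls from duplicates.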

[2] = compound: CC(=O)c1cnc2ccc(-c3cc(Cl)c(O)c(Cl)c3)nc2c1N[C@H]1CC[C@H](CN(C)C)CC1
Method in brief: as §1

[3] = compound: CC(C)(C)Cn1c(N)nc2ccc(-c3[nH]c(C(C)(C)C)nc3-c3ccc(F)cc3)nc21 [ralimetinib]
Method in brief: as §1

[4] = compound: CC(C)(O)CC(=O)NCCn1ccc2ncnc(Nc3ccc(Oc4cccc(C(F)(F)F)c4)c(Cl)c3)c21
Method in brief: as §1

[5] = compound: CC(C)C1=C2N=C(C=C(N2N=C1)NCC3=CC=CC=C3)NCCCCCCN
Method in brief: as §1

[6] = compound: CC1=C(C(CC(=O)N1)C2=CC=C(C=C2)C(F)(F)F)C(=O)NC3=C(C=C4C(=C3)C=NN4)F
Method in brief: as §1

[7] = compound: CC1=C(C2=C(C=C1)C(=O)C3=CC=CC=C3N2CCCN)C
Method in brief: as §1

[8] = compound: CC1=C(C=C(C=C1)NC(=O)C2=CC(=CC=C2)C(C)(C)C#N)NC3=CC4=C(C=C3)N=CN(C4=O)C
Method in brief: as §1

[9] = compound: CC1=C(C=C(C=C1)NC(=O)C2=CC(=CC=C2)N(C)C)NC(=O)C3=CC=C(C=C3)O
Method in brief: as §1

[10] = compound: CC1=CC=C(C=C1)SC2=C3C=C(SC3=CN=C2)C(=O)N
Method in brief: as §1

Measured: log2 fold change

OPTN (UniProt Q96CV9)
inactive: [1] -0.028 | [2] 0.029 | [3] 0.012 | [4] -0.001 | [5] -0.06 | [6] -0.008 | [7] -0.027 | [8] -0.001 | [9] -0.008 | [10] 0.018

PACSIN3 (UniProt Q9UKS6)
inactive: [1] 0.104 | [2] 0.134 | [3] -0.04 | [4] -0.127 | [5] 0.083 | [6] 0.003 | [7] -0.029 | [8] 0.01 | [9] 0.002 | [10] 0.162

NUP85 (UniProt Q9BW27)
inactive: [1] 0.016 | [2] -0.017 | [3] 0.02 | [4] -0.009 | [5] 0.007 | [6] 0.013 | [7] -0.004 | [8] -0.022 | [9] -0.005 | [10] -0.005

OCIAD1 (UniProt Q9NX40)
inactive: [1] 0.055 | [2] 0 | [3] 0.005 | [4] -0.026 | [5] -0.008 | [6] 0.027 | [7] 0 | [8] 0.031 | [9] -0.021 | [10] -0.009

OS9 (UniProt Q13438)
inactive: [1] 0.007 | [2] 0.003 | [3] 0.026 | [4] -0.017 | [5] -0.02 | [6] 0.024 | [7] 0.019 | [8] -0.007 | [9] 0.017 | [10] -0.01

PARL (UniProt Q9H300)
inactive: [1] -0.012 | [2] 0.006 | [3] 0.019 | [4] -0.051 | [5] -0.013 | [6] 0.017 | [7] 0.034 | [8] 0.033 | [9] 0.027 | [10] 0.004

OXCT1 (UniProt P55809)
inactive: [1] -0.005 | [2] -0.049 | [3] 0.002 | [4] -0.011 | [5] -0.012 | [6] -0.018 | [7] 0.01 | [8] -0.005 | [9] 0.001 | [10] -0.005

PARK7 (UniProt Q99497)
inactive: [1] -0.034 | [2] 0.002 | [3] -0.026 | [4] -0.02 | [5] 0.006 | [6] -0.036 | [7] -0.019 | [8] 0.026 | [9] -0.033 | [10] -0.021

OGFOD2 (UniProt Q6N063)
inactive: [1] 0.002 | [2] 0.023 | [3] -0.012 | [4] -0.018 | [5] -0.125 | [6] -0.023 | [7] 0.025 | [8] -0.04 | [9] -0.029 | [10] -0.023

OSTC (UniProt Q9NRP0)
inactive: [1] 0.173 | [2] -0.003 | [3] 0.085 | [4] -0.049 | [5] 0.032 | [6] -0.015 | [7] -0.049 | [8] 0.003 | [9] -0.004 | [10] -0.06

OBSL1 (UniProt O75147)
inactive: [1] 0.037 | [2] 0.015 | [3] 0 | [4] -0.044 | [5] 0.049 | [6] 0.061 | [7] -0.014 | [8] -0.014 | [9] 0.003 | [10] -0.135

NUP42 (UniProt O15504)
inactive: [1] 0.027 | [2] 0.043 | [3] -0.025 | [4] -0.069 | [5] -0.087 | [6] -0.017 | [7] -0.094 | [8] 0.063 | [9] -0.119 | [10] -0.013

ORC2 (UniProt Q13416)
inactive: [1] 0.012 | [2] -0.011 | [3] 0.044 | [4] 0.032 | [5] -0.014 | [6] 0.016 | [7] -0.089 | [8] -0.005 | [9] -0.014 | [10] 0.021

OSBPL9 isoform 2 (UniProt Q96SU4)
inactive: [1] -0.015 | [2] 0.01 | [3] -0.036 | [4] -0.006 | [5] -0.03 | [6] -0.012 | [7] 0.015 | [8] -0.006 | [9] 0.021 | [10] -0.049

Reprinted at random: 2 records from the list
OPTN (UniProt Q96CV9)
inactive: [1] -0.028 | [2] 0.029 | [3] 0.012 | [4] -0.001 | [5] -0.06 | [6] -0.008 | [7] -0.027 | [8] -0.001 | [9] -0.008 | [10] 0.018

OBSL1 (UniProt O75147)
inactive: [1] 0.037 | [2] 0.015 | [3] 0 | [4] -0.044 | [5] 0.049 | [6] 0.061 | [7] -0.014 | [8] -0.014 | [9] 0.003 | [10] -0.135

(continued)

OXSR1 (UniProt O95747)
inactive: [1] 0.031 | [2] 0.01 | [3] 0.008 | [4] 0.005 | [5] 0.021 | [6] 0.019 | [7] 0.003 | [8] -0.005 | [9] -0.001 | [10] -0.008

NUTF2 (UniProt P61970)
inactive: [1] -0.012 | [2] 0.031 | [3] 0.024 | [4] -0.014 | [5] 0.007 | [6] -0.058 | [7] 0.04 | [8] 0.04 | [9] -0.018 | [10] 0.055

NUP205 (UniProt Q92621)
inactive: [1] 0.015 | [2] 0.026 | [3] 0.026 | [4] -0.006 | [5] -0.036 | [6] 0.003 | [7] 0.022 | [8] 0.026 | [9] 0.017 | [10] 0.008

P4HA1 (UniProt P13674)
inactive: [1] 0.004 | [2] -0.009 | [3] 0.008 | [4] 0.023 | [5] 0.011 | [6] -0.024 | [7] 0.003 | [8] -0.001 | [9] -0.006 | [10] 0.005

OTUD6B (UniProt Q8N6M0)
inactive: [1] 0.023 | [2] 0.003 | [3] -0.003 | [4] 0.007 | [5] 0.009 | [6] 0.008 | [7] 0.006 | [8] 0.148 | [9] -0.005 | [10] 0.04

PAGE1 (UniProt O75459)
inactive: [1] -0.068 | [2] -0.002 | [3] -0.036 | [4] 0.01 | [5] -0.003 | [6] -0.06 | [7] 0.018 | [8] 0.005 | [9] 0.075 | [10] -0.055

PAICS (UniProt P22234)
inactive: [1] -0.003 | [2] 0.006 | [3] -0.008 | [4] -0.013 | [5] 0.011 | [6] -0.017 | [7] -0.003 | [8] -0.02 | [9] -0.019 | [10] -0.009

OTULIN (UniProt Q96BN8)
inactive: [1] 0.014 | [2] 0.024 | [3] 0.031 | [4] 0.011 | [5] -0.02 | [6] 0.01 | [7] 0 | [8] 0.115 | [9] 0.013 | [10] -0.013

PAGE5 (UniProt Q96GU1)
inactive: [1] -0.05 | [2] -0.102 | [3] 0.045 | [4] 0.031 | [5] 0.018 | [6] -0.011 | [7] -0.02 | [8] 0.014 | [9] 0.029 | [10] 0.142

NUP37 (UniProt Q8NFH4)
inactive: [1] -0.052 | [2] -0.008 | [3] 0.005 | [4] 0.013 | [5] -0.002 | [6] 0.016 | [7] 0.009 | [8] -0.007 | [9] -0.01 | [10] 0

NUP160 (UniProt Q12769)
inactive: [1] 0.063 | [2] -0.007 | [3] 0.062 | [4] 0.017 | [5] -0.021 | [6] 0.01 | [7] 0.005 | [8] 0.012 | [9] -0.021 | [10] 0.001

OCRL (UniProt Q01968)
inactive: [1] 0.051 | [2] -0.038 | [3] -0.016 | [4] 0.016 | [5] 0.044 | [6] 0.013 | [7] 0.036 | [8] 0.022 | [9] -0.002 | [10] 0.033

OSBP (UniProt P22059)
inactive: [1] -0.007 | [2] 0.003 | [3] -0.019 | [4] -0.007 | [5] -0.19 | [6] 0.018 | [7] 0.04 | [8] -0.103 | [9] 0.011 | [10] -0.003

OTUB1 (UniProt Q96FW1)
inactive: [1] -0.005 | [2] -0.013 | [3] 0.021 | [4] -0.053 | [5] -0.008 | [6] -0.004 | [7] -0.009 | [8] -0.008 | [9] -0.012 | [10] 0.006

OTC (UniProt P00480)
inactive: [1] -0.089 | [2] 0.001 | [3] 0.065 | [4] -0.18 | [5] 0.017 | [6] -0.055 | [7] 0.065 | [8] 0.156 | [9] -0.034 | [10] -0.004

OBI1 (UniProt Q5W0B1)
inactive: [1] 0.082 | [2] 0.027 | [3] 0.016 | [4] -0.071 | [5] -0.046 | [6] 0.041 | [7] -0.054 | [8] 0.036 | [9] -0.001 | [10] 0.005
